Experimental data from PubChem BioAssay AID330 (DTP/NCI, 2004).
The list shows only some results of the screen, not a fair sample: it is rich in T/C values a quarter to a half above the control, in often repeated tests (any T/C) and in doses without a T/C. Further doses and runs are listed elsewhere. T/C: endpoint of the treated group in % of that of the vehicle group. Some entries give survivors of the animals treated and no T/C: the source files T/C as zero there, which appears to mark a toxic dose or a test without result, not a measured value. Some doses without a T/C left all or most animals alive at the check, yet need not have been tolerated: survival well below the control is almost never listed, so the zero probably covers shortened survival too. Survivors were counted at the toxicity check, usually on the fifth day, unless a day is given; later deaths do not show. Schedules are NCI's codes, read here as Q, the interval in days (D) or hours (H), X, the number of doses. Where survival is the endpoint, the PubChem record calls one and a half times the control and up active, and a quarter to a half above the control has no call in these data; cut-offs in other NCI protocols can differ. Counts like (3×) say how often a value occurs here. Some entries were tested several times; the results are listed from low to high.

System: P388 leukemia ip, CD2F1 mice, survival T/C
Experiment: NCI In Vivo Anticancer Drug Screen. Data for tumor model P388 Leukemia (intraperitoneal) in CD2F1 (CDF1) mice
Conditions: T/C endpoint: median survival time, higher T/C = longer survival
[1] = dose: 200.0 mg/kg/injection, schedule: Q01DX005 (ip), vehicle: Klucel (hydroxypropylcellulose) (HPC)
[2] = dose: 240.0 mg/kg/injection, schedule: Q01DX005 (ip), vehicle: saline with Tween-80
[3] = dose: 200.0 mg/kg/injection, schedule: Q01DX009 (ip), vehicle: saline
[4] = dose: 200.0 mg/kg/injection, schedule: Q01DX009 (ip), vehicle: saline with Tween-80
[5] = dose: 200.0 mg/kg/injection, schedule: Q01DX005 (ip), vehicle: saline with Tween-80
[6] = dose: 200.0 mg/kg/injection, schedule: Q01DX005 (ip), vehicle: saline
[7] = dose: 100.0 mg/kg/injection, schedule: Q01DX005 (ip), vehicle: Klucel (hydroxypropylcellulose) (HPC)
[8] = dose: 25.0 mg/kg/injection, schedule: Q01DX005 (ip), vehicle: Klucel (hydroxypropylcellulose) (HPC)
[9] = dose: 50.0 mg/kg/injection, schedule: Q01DX005 (ip), vehicle: Klucel (hydroxypropylcellulose) (HPC)
[10] = dose: 200.0 mg/kg/injection, schedule: Q04DX003 (ip), vehicle: saline
[11] = dose: 400.0 mg/kg/injection, schedule: Q04DX003 (ip), vehicle: saline
[12] = dose: 100.0 mg/kg/injection, schedule: Q01DX009 (ip), vehicle: saline with Tween-80
[13] = dose: 120.0 mg/kg/injection, schedule: Q01DX005 (ip), vehicle: saline with Tween-80
[14] = dose: 100.0 mg/kg/injection, schedule: Q04DX003 (ip), vehicle: saline with Tween-80
[15] = dose: 400.0 mg/kg/injection, schedule: Q04DX003 (ip), vehicle: saline with Tween-80

## COc1ccc(/C=C2\SC(=O)N(C)C2=O)cc1OC
[1]
  survivor count: 5 of 5

## Cc1cc(C)c2c(=O)n(-c3ccccc3C)c(=S)n(-c3ccccc3C)c2n1
[2]
  survivor count: 6 of 6

## C=CCC(C(=O)OC)c1ccc(F)cc1 (centres undefined)
dose: 0.25 mg/kg/injection, schedule: Q01DX009 (ip), vehicle: saline
  survivor count: 5 of 6
dose: 0.5 mg/kg/injection, schedule: Q01DX009 (ip), vehicle: saline
  survivor count: 6 of 6

## COc1cc(C(=O)O)c2c(c1C)OC(=O)c1c(C)cc(O)c(C=O)c1O2
dose: 50.0 mg/kg/injection, schedule: Q01DX009 (ip), vehicle: saline
  survivor count: 3 of 3
dose: 100.0 mg/kg/injection, schedule: Q01DX009 (ip), vehicle: saline
  survivor count: 0 of 3
[3]
  survivor count: 0 of 3

## Cc1nc(Nc2ccc(F)cc2)c2c(-c3ccccc3)c[nH]c2n1
[1]
  survivor count: 6 of 6

## CC[CH2][Sn]([CH2]CC)([CH2]CC)[CH2]CCBr
[4]
  survivor count: 1 of 6

## O=C1CN(c2ccc(Cl)cc2)C(=O)CN1/N=C/c1ccc(O)c(O)c1
[5]
  survivor count: 6 of 6

## BrCc1cn(Cc2ccccc2)nn1
[3]
  survivor count: 0 of 6

## O=c1cccc2n1C[C@H]1C[C@@H]2CN2CCCC[C@H]12
dose: 25.0 mg/kg/injection, schedule: Q01DX005 (ip), vehicle: saline
  survivor count: 0 of 6
dose: 50.0 mg/kg/injection, schedule: Q01DX005 (ip), vehicle: saline
  survivor count: 0 of 6
dose: 100.0 mg/kg/injection, schedule: Q01DX005 (ip), vehicle: saline
  survivor count: 0 of 6
[6]
  survivor count: 0 of 6

## CN1CCC(O)(c2ccc(Br)cc2)C(C(=O)c2ccc(Br)cc2)C1 (centres undefined)
[7]
  survivor count: 6 of 6
[1]
  survivor count: 6 of 6

## Cc1cccc(/C=C/C(=O)C(CN(C)C)CN(C)C)c1
[8]
  survivor count: 0 of 6
[9]
  survivor count: 0 of 6
[7]
  survivor count: 0 of 6
[1]
  survivor count: 0 of 6

## CCc1c(NCCCl)c(C(=O)NCCCl)c2nc3ccccc3n2c1NCCCl
dose: 60.0 mg/kg/injection, schedule: Q01DX005 (ip), vehicle: saline
  survivor count: 0 of 6
dose: 120.0 mg/kg/injection, schedule: Q01DX005 (ip), vehicle: saline
  survivor count: 0 of 6
dose: 240.0 mg/kg/injection, schedule: Q01DX005 (ip), vehicle: saline
  survivor count: 0 of 6

## CCc1nc(N)nc(N)c1-c1ccc(NC)c([N+](=O)[O-])c1
[8]
  T/C: 135 % of control
[9]
  T/C: 136 and 142 % of control
[7]
  survivor count: 6 of 6
[1]
  survivor count: 5 of 6

## Cc1c2oc3c(C)ccc(C(=O)NC4C(=O)NC(C(C)C)C(=O)N(C)CC(=O)N(C)CC(=O)N(C)C(C(C)C)C(=O)OC4C)c3nc-2c(C(=O)NC2C(=O)NC(C(C)C)C(=O)N(C)CC(=O)N(C)CC(=O)N(C)C(C(C)C)C(=O)OC2C)c(N)c1=O (centres undefined)
dose: 0.05 mg/kg/injection, schedule: Q01DX009 (ip), vehicle: water
  T/C: 140 % of control

## CCC(CC)c1ccccn1
dose: 178.0 mg/kg/injection, schedule: Q04DX003 (ip), vehicle: saline
  T/C: 131 % of control
[10]
  T/C: 140 % of control
dose: 266.0 mg/kg/injection, schedule: Q04DX003 (ip), vehicle: saline
  T/C: 145 % of control
dose: 400.0 mg/kg/injection, schedule: Q01DX009 (ip), vehicle: saline
  survivor count: 0 of 6
[11]
  T/C: 145 % of control (2×)
dose: 600.0 mg/kg/injection, schedule: Q04DX003 (ip), vehicle: saline
  T/C: 131 % of control

## CNc1ncnc2c1cnn2C
[12]
  survivor count: 4 of 6
[4]
  survivor count: 0 of 6
[11]
  survivor count: 2 of 6

## O=C1C=CC(Nc2cccc([N+](=O)[O-])c2)C1Nc1cccc([N+](=O)[O-])c1 (centres undefined)
dose: 60.0 mg/kg/injection, schedule: Q01DX005 (ip), vehicle: saline with Tween-80
  survivor count: 6 of 6
[13]
  survivor count: 6 of 6
[2]
  survivor count: 6 of 6

## O=C(Cc1nc(-c2ccc(Cl)cc2)no1)c1ccccc1
[4]
  survivor count: 6 of 6

## O=C(NC(=O)C(F)(F)F)Nc1ccc(Cl)cc1
[4]
  survivor count: 5 of 6

## Cc1ccc(NC(=O)Cc2nc3ccccc3s2)c(C)c1
[2]
  survivor count: 0 of 6

## C=CC(=O)NC(=O)Nc1ccccc1Cl
dose: 50.0 mg/kg/injection, schedule: Q01DX009 (ip), vehicle: Klucel (hydroxypropylcellulose) (HPC)
  survivor count: 3 of 6
dose: 100.0 mg/kg/injection, schedule: Q01DX009 (ip), vehicle: Klucel (hydroxypropylcellulose) (HPC)
  survivor count: 0 of 6
dose: 200.0 mg/kg/injection, schedule: Q01DX009 (ip), vehicle: Klucel (hydroxypropylcellulose) (HPC)
  survivor count: 0 of 6

## Cc1coc2c1CCC(C)C2 (centres undefined)
[12]
  survivor count: 3 of 6
[4]
  survivor count: 0 of 6

## CCc1ccc2c(-c3ccccc3)c3c(-c4ccccc4)c4ccccc4c(-c4ccccc4)c3c(-c3ccccc3)c2c1
dose: 100.0 mg/kg/injection, schedule: Q01DX005 (ip), vehicle: saline with Tween-80
  survivor count: 3 of 4
[5]
  survivor count: 5 of 5

## CCN(CC)CCCC(C)Nc1c(C)cnc2cc(Cl)c(C)cc12 (centres undefined)
[6]
  survivor count: 1 of 5

## Cc1cccc(/C(=C\c2ccc([N+](=O)[O-])cc2)C(=O)Nc2ccc(S(=O)(=O)F)c(C)c2)c1
dose: 240.0 mg/kg/injection, schedule: Q01DX005 (ip), vehicle: Klucel (hydroxypropylcellulose) (HPC)
  survivor count: 6 of 6

## O=C1C(=O)c2ccccc2C(O)=C1CC=C(Cl)Cl
dose: 100.0 mg/kg/injection, schedule: Q01DX009 (ip), vehicle: water
  survivor count: 0 of 6
dose: 200.0 mg/kg/injection, schedule: Q01DX009 (oral), vehicle: water
  survivor count: 3 of 6
dose: 400.0 mg/kg/injection, schedule: Q01DX009 (oral), vehicle: water
  survivor count: 0 of 6

## CCCCN(C)N=Nc1c(C(N)=O)n[nH]c1C
dose: 66.0 mg/kg/injection, schedule: Q04DX003 (ip), vehicle: saline with Tween-80
  T/C: 140 % of control
[14]
  T/C: 136 % of control
dose: 150.0 mg/kg/injection, schedule: Q04DX003 (ip), vehicle: saline with Tween-80
  T/C: 127 % of control
[15]
  survivor count: 1 of 6

## Cc1ccc(C(=O)NN2C(N)=NC(N)=NC2(C)C)cc1
[10]
  survivor count: 6 of 6

## CC(=O)OCN1C(=O)C2C3C=CC(C2C1=O)C1C2C(=O)N(COC(C)=O)C(=O)C2C31 (centres undefined)
dose: 50.0 mg/kg/injection, schedule: Q01DX009 (ip), vehicle: saline with Tween-80
  T/C: 140 % of control
[4]
  T/C: 133 % of control

## O=C(c1ccccc1)c1ccccc1NCC(O)COc1ccc(Cl)cc1 (centres undefined)
[13]
  survivor count: 6 of 6

## C/C=C/c1ccccc1N/N=C(\Cl)C(=O)OCC
dose: 30.0 mg/kg/injection, schedule: Q01DX005 (ip), vehicle: saline with Tween-80
  T/C: 125 % of control
[12]
  survivor count: 3 of 6
[4]
  survivor count: 0 of 6
dose: 400.0 mg/kg/injection, schedule: Q01DX009 (ip), vehicle: saline with Tween-80
  survivor count: 0 of 6

## CN(C)c1ccc(/C=C/c2ccnc3ccccc23)cc1Cl
dose: 50.0 mg/kg/injection, schedule: Q04DX003 (ip), vehicle: saline with Tween-80
  survivor count: 6 of 6
[14]
  survivor count: 3 of 6
dose: 200.0 mg/kg/injection, schedule: Q04DX003 (ip), vehicle: saline with Tween-80
  survivor count: 0 of 6
[15]
  survivor count: 0 of 6

## O=C1CCCC2=C1C(c1ccccc1)/C(=N/O)O2 (centres undefined)
dose: 100.0 mg/kg/injection, schedule: Q04DX003 (ip), vehicle: Klucel (hydroxypropylcellulose) (HPC)
  survivor count: 6 of 6
dose: 400.0 mg/kg/injection, schedule: Q04DX003 (ip), vehicle: Klucel (hydroxypropylcellulose) (HPC)
  survivor count: 6 of 6
